# Screening data, single-dose tests

Sequences of proteins named here, by UniProt entry; tags and fusion partners are left off. Residues count along the entry.
UniProt A4I591, 1-473: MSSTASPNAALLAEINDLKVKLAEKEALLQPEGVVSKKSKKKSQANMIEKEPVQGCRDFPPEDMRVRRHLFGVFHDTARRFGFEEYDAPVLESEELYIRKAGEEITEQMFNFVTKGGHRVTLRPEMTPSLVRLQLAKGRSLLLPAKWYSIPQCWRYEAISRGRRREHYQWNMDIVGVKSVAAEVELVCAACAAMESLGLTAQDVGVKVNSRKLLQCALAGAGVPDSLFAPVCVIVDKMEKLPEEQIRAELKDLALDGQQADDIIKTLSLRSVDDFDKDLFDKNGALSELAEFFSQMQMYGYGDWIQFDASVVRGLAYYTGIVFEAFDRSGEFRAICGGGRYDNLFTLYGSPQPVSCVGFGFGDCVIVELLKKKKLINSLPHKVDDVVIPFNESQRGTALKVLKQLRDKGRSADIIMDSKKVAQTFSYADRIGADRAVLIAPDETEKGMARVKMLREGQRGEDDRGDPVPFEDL
UniProt Q4DA54, 1-478: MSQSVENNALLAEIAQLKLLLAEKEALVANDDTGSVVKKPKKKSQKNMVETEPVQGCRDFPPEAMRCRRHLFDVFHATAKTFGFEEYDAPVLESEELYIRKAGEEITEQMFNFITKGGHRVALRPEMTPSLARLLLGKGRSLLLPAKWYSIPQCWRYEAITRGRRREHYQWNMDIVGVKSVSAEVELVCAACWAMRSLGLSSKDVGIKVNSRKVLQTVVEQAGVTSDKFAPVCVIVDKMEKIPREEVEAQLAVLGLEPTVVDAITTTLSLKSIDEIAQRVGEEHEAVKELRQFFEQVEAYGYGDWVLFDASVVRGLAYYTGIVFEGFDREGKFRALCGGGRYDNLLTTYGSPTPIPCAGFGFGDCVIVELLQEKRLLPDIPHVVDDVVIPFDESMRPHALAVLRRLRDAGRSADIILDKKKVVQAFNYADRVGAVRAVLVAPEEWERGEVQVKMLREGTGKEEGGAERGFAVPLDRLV

Each number is a percent effect as filed.
How 0% and 100% were set is not recorded. Most values in the screen are low, and negative values occur.
The compounds are a random part of those screened.

LiHisRS: 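Histidine-tRNA ligase, Leishmania infantum (UniProt A4I591). Enzyme assay of histidyl-tRNA synthetase; the read-out is not stated. Compounds at 30 µM. The record gives no direction; compounds that gave an IC50 in retests scored well above the rest, so higher reads as stronger inhibition. The assay is labelled LdHisRS but filed under L. infantum. Of about 69,000 compounds tested this way, about 410 (0.6%) reached 50% or more in at least one test.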
TcHisRS: 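Histidine-tRNA ligase, Trypanosoma cruzi CL Brener (UniProt Q4DA54). Enzyme assay of histidyl-tRNA synthetase; the read-out is not stated. Compounds at 30 µM. Direction is inferred from retests: higher values go with stronger inhibition. Of about 69,000 compounds tested this way, about 31 (0.045%) reached 50% or more in at least one test.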

| Compound | LiHisRS | TcHisRS |
|---|---|---|
| `COCCN1CCc2ncnc(OC(C)C)c2CC1` | 15.32 | -3.315 |
| `O=C(NCC1CC1)C1=NOC2(CCN(Cc3ccc4c(c3)OCO4)C2)C1` (stereo not shown) | 11.32 | 2.703 |
| `O=C(NCCc1nccs1)C1CCCN(Cc2ccco2)C1` (stereo not shown) | 7.292 | 8.939 |
| `CS(=O)(=O)NCCNC(=O)NC1(c2ccc(Cl)cc2)CCC1` | 13.33 | 5.195 |
| `Cc1cccnc1NC(=O)NCc1cccnc1OC(C)C` | 9.565 | 2.817 |
| `CCCc1cc(CNC2CCN(c3nc(C)cc(C)n3)CC2)on1` | 14.29 | 12 |
| `Cc1ccc(CN2CCc3[nH]nc(C(=O)N(C)C)c3C2)s1` | 15.53 | 5.825 |
| `CC(NC(=O)NCCCO)c1ccc2c(c1)OCCO2` (stereo not shown) | 27.69 | -1.916 |
| `NC(=O)CN1CC2(CCC1=O)CCN(Cc1ccc(Cl)c(F)c1)CC2` | 5.208 | 5.587 |
| `Cc1cccc2c1OCCC2NCc1c(C)nn(C)c1N(C)C` (stereo not shown) | 23.2 | 5.703 |
| `Cn1ncc(C2CC(=O)NCc3nc4sccn4c32)c1C1CC1` (stereo not shown) | -2.5 | 1.932 |
| `Cc1ccc(C(=O)N2CCC3(CC2)CC(N2CCOCC2)C3)cc1` | 4.878 | 6.015 |
| `COCc1cc(NCCc2ccccn2)n2nccc2n1` | 18.07 | -2.439 |
| `O=C(C1CC1)N1CCC(c2nc(O)c3c(n2)CCN(C2CCCC2)C3)C1` (stereo not shown) | 9.489 | 3.825 |
| `CNC(=O)c1cccnc1NCCOc1ccccc1` | 15.15 | 3.261 |
| `CN(C)C(=O)[C@H]1CO[C@H]2CCN(c3ncc(F)cn3)C[C@H]2C1` | 16.67 | 9.524 |
| `CCCc1nc(CN2CCOC(CNc3cccnn3)C2)cs1` (stereo not shown) | 69.05 | 5.263 |
| `CCCn1cc(-c2cc(-c3c[nH]cn3)c(C#N)c(N)n2)c(C)n1` | 37.7 | 16.8 |
| `COc1c(C2CCCN2C(=O)c2cnc(C)cn2)c(C)nn1C` (stereo not shown) | 3.478 | 2.299 |
| `O=C(c1ccoc1)N1CCc2ncc(Cn3cccn3)n2CC1` | 2.778 | 0 |
| `CN(Cc1nc(N)c2ccccc2n1)C1CCCN(c2cccnn2)C1` (stereo not shown) | 24.66 | 8.397 |
| `Cc1ccc2oc(C(=O)N3CCc4nnc(N(C)C)cc4C3)cc2n1` | 22.97 | 0.3774 |
| `CN(CCNC(=O)N1CCCC1)C(=O)OC(C)(C)C` | 13.79 | 2.618 |
| `O=C([C@H]1CCCO1)N1CCOC2(CCCN(c3ncccc3F)C2)C1` (stereo partly shown) | -6.422 | 3.365 |
| `Cc1ccc(CN2CCn3c(CNS(C)(=O)=O)nnc3C2)s1` | 2 | 5.882 |
| `O=C(c1ccc(O)cc1)N1C[C@@H]2OCCN(c3ncccn3)[C@@H]2C1` | 8.333 | 2.857 |
| `O=C(Cc1cccs1)NCC1(O)CCc2ccccc2C1` (stereo not shown) | 7.692 | 3.333 |
| `O=C(CC1CC1)N1CCc2ncc(Cn3cncn3)n2CC1` | 22 | 5.882 |
| `N#Cc1cccc(NS(=O)(=O)c2ccc(C(=O)O)cc2F)c1` | 0 | 1.433 |
| `CCn1cncc1Cn1cccc(C(F)(F)F)c1=O` | 21.37 | 5.556 |
| `CC(Cn1cccn1)NCc1nc(-c2cccc(Cl)c2)no1` (stereo not shown) | 13.64 | -0.7576 |
| `Cc1cc(C2CCCN2C(=O)NCc2cccnc2N(C)C)on1` (stereo not shown) | 4.839 | 6.897 |
| `Cn1cnc2c1CCN(CC(=O)N(Cc1ccsc1)C1CC1)C2` | 19.33 | 5.882 |
| `O=C(NCc1cnc2n1CCN(Cc1ccoc1)C2)c1ccno1` | 22 | 4.124 |
| `CCCS(=O)(=O)CC(=O)N1CCCC1c1noc(C2CC2)n1` (stereo not shown) | 4.839 | -2.299 |
| `O=c1[nH]ncc(NCCOc2cccc(Br)c2)c1Cl` | 2.083 | 6.077 |
| `CCc1nc(CN(C)C(=O)c2ccc(OCCCOC)nc2)cs1` | 0.8929 | -3.333 |
| `Cc1cnc(NCc2cnn(C)c2)nc1-c1cnn(C)c1` | 6.993 | 4.478 |
| `CC(=O)N1CCCn2nc(CNc3cc(C)ncn3)cc2C1` | 5.556 | 4.082 |
| `N#Cc1cnc(NCCCN2C(=O)COc3ccccc32)c(Cl)c1` | 22.41 | 7.853 |
| `CCCc1ccc(C(=O)N2CCc3c(nc(N(C)C)[nH]c3=O)C2)cc1` | 7.692 | 8.427 |
| `CC(C)NC(=O)CCNC(=O)c1c(Br)c2ccccc2n1C` | 25 | 1.478 |

The first 5 entries again:

* COCCN1CCc2ncnc(OC(C)C)c2CC1 : LiHisRS: 15.32%; TcHisRS: -3.315%
* O=C(NCC1CC1)C1=NOC2(CCN(Cc3ccc4c(c3)OCO4)C2)C1 (stereo not shown) : LiHisRS: 11.32%; TcHisRS: 2.703%
* O=C(NCCc1nccs1)C1CCCN(Cc2ccco2)C1 (stereo not shown) : LiHisRS: 7.292%; TcHisRS: 8.939%
* CS(=O)(=O)NCCNC(=O)NC1(c2ccc(Cl)cc2)CCC1 : LiHisRS: 13.33%; TcHisRS: 5.195%
* Cc1cccnc1NC(=O)NCc1cccnc1OC(C)C : LiHisRS: 9.565%; TcHisRS: 2.817%

Source: ChEMBL document CHEMBL3988442, “University of Dundee, Small-Polar-MMV Screening Library” (2021).